According to PubChem BioAssay AID2551 (National Center for Advancing Translational Sciences (NCATS), 2010):
Among all 310,000 compounds or so, about 17,000 (5.5%) were called active. Inconclusive means that the source gave no clear call. Such entries were picked first, then a sample of the others. The call rests on the fitted dose curve; in most records, active means well fitted inhibition curve with a large enough effect; inconclusive means small, poorly fitted or top-dose-only effect, or effect the other way; inactive means no such curve, though single readings can be large or run the other way. A potency beside an inconclusive call is a rough fit, not a confirmed value.

Chains of the proteins cited; added tags and fusions are not shown. Lines headed by an entry give the natural chain unless they say otherwise; changes in a name come on top.
UniProt P51450: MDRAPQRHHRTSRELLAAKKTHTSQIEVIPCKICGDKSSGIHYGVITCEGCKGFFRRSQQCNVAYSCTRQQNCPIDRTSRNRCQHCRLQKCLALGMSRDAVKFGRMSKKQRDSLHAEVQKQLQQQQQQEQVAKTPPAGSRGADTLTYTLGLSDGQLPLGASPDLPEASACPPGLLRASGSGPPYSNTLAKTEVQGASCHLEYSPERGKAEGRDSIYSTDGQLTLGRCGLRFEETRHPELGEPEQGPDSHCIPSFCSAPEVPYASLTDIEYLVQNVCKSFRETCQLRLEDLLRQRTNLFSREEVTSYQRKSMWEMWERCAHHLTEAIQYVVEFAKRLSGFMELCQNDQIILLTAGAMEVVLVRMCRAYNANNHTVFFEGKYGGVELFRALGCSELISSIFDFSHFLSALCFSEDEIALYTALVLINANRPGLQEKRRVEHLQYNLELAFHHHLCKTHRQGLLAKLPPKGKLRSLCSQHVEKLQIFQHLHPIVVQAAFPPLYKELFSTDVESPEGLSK

What follows are compounds tested against Nuclear receptor ROR-gamma (Mus musculus) (UniProt P51450) (assay: qHTS for inhibitors of ROR gamma transcriptional activity). Conditions: Drosophila S2 Gal4-RORgamma UAS-luciferase reporter, 20 h; activity change, negative = inhibition: at 53.6 µM (top of the series).
In short: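 Luminescence from a UAS-regulated Photinus luciferase reporter in stably transfected Drosophila Schneider cells is measured; decreased signal marks ROR gamma inhibition. Fusion expression is induced by 700 uM copper sulfate for 20 hr.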
Further: nearly all actives have a fitted effect of over 60% in size.
On the % scale 0 is the no-effect control and ±100 the full control effect; potency means the concentration at half of the fitted maximal effect.

Row | Compound | Potency | activity change, negative = inhibition
1 | O=C(OCCNC(=O)c1cc2ccccc2oc1=O)c1cccnc1 | inactive | 
2 | C=CCc1cccc(CNc2cnc3ccccc3c2)c1O | inconclusive: 31.6 µM [inhibitor, single point] | 
3 | COc1ccc(C(C)(C)C)cc1NC(=O)COC(=O)c1cc(SC)ccc1Cl | inconclusive: 8.91 µM [activator, partial curve] | 
4 | CC[C@@H]1OC(=O)[C@H](C)[C@H](O[C@@H]2C[C@](C)(OC)[C@H](O)[C@H](C)O2)[C@H](C)[C@H](O[C@@H]2O[C@@H](C)C[C@@H](N(C)C)[C@@H]2O)[C@](C)(O)C[C@H](C)C(=O)[C@H](C)[C@H](O)[C@]1(C)O | inactive | 
5 | Cn1c(=O)c2c(nc(CN3CCC(C(N)=O)CC3)n2Cc2c(F)cccc2Cl)n(C)c1=O | inactive | 
6 | COc1ccc(CNc2cccc(F)c2)cc1Br | inconclusive: 31.6 µM [activator, single point] | 
7 | NS(=O)(=O)c1ccc2nc(NC(=O)C3=COCCO3)sc2c1 | inconclusive: 15.8 µM [inhibitor, single point] | 
8 | O=C(Nc1c(Cl)cccc1Cl)c1cc(=O)n(Cc2ccccc2)c(=O)[nH]1 | inconclusive: 5.01 µM [activator, partial curve] | 
9 | O=C(/C=C/c1cccc([N+](=O)[O-])c1)NCCSCc1ccc(Cl)cc1Cl | inconclusive: 20 µM [activator, single point] | 
10 | C[C@@H]1O[C@@H](O[C@H]2[C@H](Oc3cc(O)c4c(c3)O[C@H](c3ccc(O)cc3)CC4=O)O[C@H](CO)[C@@H](O)[C@@H]2O)[C@H](O)[C@H](O)[C@H]1O | inconclusive: 0.708 µM [inhibitor, full curve] | 
11 | CCN1CCN(c2cc(C)c3cc(NC(=O)c4ccc5c(c4)OCO5)ccc3n2)CC1 | inconclusive: 17.8 µM [inhibitor, single point] | 
12 | Cc1ccc(-c2cc(-c3n[nH]c(=S)o3)c3ccccc3n2)cc1 | active: 7.08 µM | 
13 | COc1ccc(C(=O)Oc2ccc(/C=N/O)cc2)cc1 | active: 11.2 µM | 
14 | COc1ccc2nc(NC(=O)C(NS(=O)(=O)c3cccc4nsnc34)C(C)C)sc2c1 (configuration not stated) | inconclusive: 17.8 µM [inhibitor, single point] | 
15 | COCCn1c(=O)c(-c2ccc(Cl)cc2)nc2cnc(N(C)C)nc21 | inactive | 
16 | CO[C@@]12C[C@@H](COC(=O)c3cncc(Br)c3)CN(C)[C@H]1Cc1cn(C)c3cccc2c13 | inactive | 
17 | Cc1ccc(NC(=O)CCCSc2ccccc2)cc1S(=O)(=O)N1CCOCC1 | inconclusive: 14.1 µM [activator, single point] | 
18 | CCOc1ccc(C(=O)N(CN2CCCC2=O)c2ccccc2)cc1 | inconclusive: 20 µM [activator, single point] | 
19 | Cc1ccc(OCC(O)CN2CCN(c3ccc(C)cc3)CC2)cc1 (configuration not stated) | inconclusive: 0.501 µM [inhibitor, full curve, poor fit] | 
20 | O=Nc1c(-c2ccccc2)cc2ccccn12 | inactive | 
21 | NC(=O)c1nsc(C(=O)N(CC(=O)NCc2ccccc2)c2cccc(F)c2)c1N | inconclusive: 14.1 µM [activator, single point] | 
22 | O=C(CCSc1ccc(Cl)cc1)c1cccs1 | inconclusive: 28.2 µM [inhibitor, single point] | 
23 | CC1CCN(C(=O)CN(Cc2ccccc2)S(C)(=O)=O)CC1 | inconclusive: 1.26 µM [activator, single point] | 
24 | NC(=O)C1CC(=O)N(c2ccc(OCc3ccc([N+](=O)[O-])cc3)cc2)C1 (configuration not stated) | inconclusive: 10 µM [activator, partial curve] | 

Row | Compound | Potency | activity change, negative = inhibition
25 | COc1cc(C(=O)Nc2nc3ccccc3[nH]2)cc(OC)c1OC | active: 10 µM | 
26 | Cc1ccc(NC(=O)CSc2nc3sc(C)cc3c(=O)n2C)cc1 | inconclusive: 25.1 µM [activator, single point] | 
27 | COC(CNC(=O)c1coc2nc3ccccc3nc12)OC | inconclusive: 17.8 µM [inhibitor, single point] | 
28 | CCCCNC(=S)Nc1cc(S(=O)(=O)N2CCCCC2)ccc1C | active: 5.62 µM | 
29 | Cn1nc(C(F)(F)F)c(/C=N/OC(=O)c2ccccc2)c1SCc1ccccc1Cl | inconclusive: 6.31 µM [inhibitor, partial curve] | 
30 | O=C(Nc1nccs1)c1ccc(COc2ccc(Cl)cc2)o1 | active: 12.6 µM | 
31 | Cc1ccc(NC(=S)NCCc2ccc(F)cc2)c(C)c1 | active: 4.47 µM | 
32 | O=c1[nH]c(Cc2ccccc2)nc2scc(-c3ccccc3)c12 | inconclusive: 25.1 µM [activator, single point] | 
33 | COc1ccc(C(=O)Nc2ccc3c(c2)CCCN3C(=O)c2cccs2)c(OC)c1 | inconclusive: 10 µM [activator, single point] | 
34 | O=[n+]1c2c(n([O-])c3ccccc31)CCC2 | inactive | 
35 | COc1ccc(/C=C/C(O)=C(\C#N)c2nnc(N3CCOCC3)n2-c2ccccc2)cc1OC | inconclusive: 10 µM [inhibitor, partial curve, poor fit] | 
36 | CCOC(=O)CCC(=O)NCc1ccc2c(c1)cc(C)n2C | inconclusive: 0.0447 µM [inhibitor, full curve, poor fit] | 
37 | COCCNC(=O)c1cc2c(-c3ccccc3F)nn(C)c2s1 | inconclusive: 0.355 µM [activator, full curve, poor fit] | 
38 | Cc1ccc2nc(-c3ccccn3)c(NC3CCCC3)n2c1 | inactive | 
39 | COc1cc2ncnc(NCc3ccco3)c2cc1OC | inconclusive: 2.24 µM [activator, full curve, poor fit] | 
40 | Cn1nnc(NC(=S)NC(=O)c2cccc3c(Br)cccc23)n1 | active: 0.891 µM | 
41 | CCS(=O)(=O)NCC(c1cccnc1)N1CCN(c2ccc(F)cc2)CC1 (configuration not stated) | inactive | 
42 | Cn1cccc1/C=N/NC(=O)c1ccncc1 | inconclusive: 10 µM [inhibitor, partial curve] | 
43 | C/C(CC(=O)NCc1ccc(Cl)cc1)=N\NC(=O)c1ccccc1F | inconclusive: 20 µM [inhibitor, single point] | 
44 | CCOC(=O)c1c(NC(=S)NC(=O)/C=C/c2cccs2)sc(C)c1C | active: 1.26 µM | 
45 | COc1cccc(C(=O)COc2ccc(NC(=O)c3cccs3)cc2)c1 | inconclusive: 11.2 µM [activator, partial curve] | 
46 | OC(COc1ccccc1Br)CN1CCNCC1 (configuration not stated) | inconclusive: 2 µM [inhibitor, full curve, poor fit] | 
47 | COC(=O)C1=C(C)NC(=O)NC1c1ccsc1 (configuration not stated) | inactive | 
48 | COc1ccc(OCCCn2cccc2/C=C2/C(=N)N3OC(C)=CC3=NC2=O)cc1 | inconclusive: 11.2 µM [inhibitor, single point] | 

19 entries out of the list, arranged by formula weight, ascending.
Row | Compound | Potency | activity change, negative = inhibition
34 | O=[n+]1c2c(n([O-])c3ccccc31)CCC2 | inactive | 
42 | Cn1cccc1/C=N/NC(=O)c1ccncc1 | inconclusive: 10 µM [inhibitor, partial curve] | 
47 | COC(=O)C1=C(C)NC(=O)NC1c1ccsc1 (configuration not stated) | inactive | 
38 | Cc1ccc2nc(-c3ccccn3)c(NC3CCCC3)n2c1 | inactive | 
27 | COC(CNC(=O)c1coc2nc3ccccc3nc12)OC | inconclusive: 17.8 µM [inhibitor, single point] | 
36 | CCOC(=O)CCC(=O)NCc1ccc2c(c1)cc(C)n2C | inconclusive: 0.0447 µM [inhibitor, full curve, poor fit] | 
46 | OC(COc1ccccc1Br)CN1CCNCC1 (configuration not stated) | inconclusive: 2 µM [inhibitor, full curve, poor fit] | 
32 | O=c1[nH]c(Cc2ccccc2)nc2scc(-c3ccccc3)c12 | inconclusive: 25.1 µM [activator, single point] | 
37 | COCCNC(=O)c1cc2c(-c3ccccc3F)nn(C)c2s1 | inconclusive: 0.355 µM [activator, full curve, poor fit] | 
43 | C/C(CC(=O)NCc1ccc(Cl)cc1)=N\NC(=O)c1ccccc1F | inconclusive: 20 µM [inhibitor, single point] | 
45 | COc1cccc(C(=O)COc2ccc(NC(=O)c3cccs3)cc2)c1 | inconclusive: 11.2 µM [activator, partial curve] | 
28 | CCCCNC(=S)Nc1cc(S(=O)(=O)N2CCCCC2)ccc1C | active: 5.62 µM | 
40 | Cn1nnc(NC(=S)NC(=O)c2cccc3c(Br)cccc23)n1 | active: 0.891 µM | 
41 | CCS(=O)(=O)NCC(c1cccnc1)N1CCN(c2ccc(F)cc2)CC1 (configuration not stated) | inactive | 
44 | CCOC(=O)c1c(NC(=S)NC(=O)/C=C/c2cccs2)sc(C)c1C | active: 1.26 µM | 
48 | COc1ccc(OCCCn2cccc2/C=C2/C(=N)N3OC(C)=CC3=NC2=O)cc1 | inconclusive: 11.2 µM [inhibitor, single point] | 
33 | COc1ccc(C(=O)Nc2ccc3c(c2)CCCN3C(=O)c2cccs2)c(OC)c1 | inconclusive: 10 µM [activator, single point] | 
29 | Cn1nc(C(F)(F)F)c(/C=N/OC(=O)c2ccccc2)c1SCc1ccccc1Cl | inconclusive: 6.31 µM [inhibitor, partial curve] | 
35 | COc1ccc(/C=C/C(O)=C(\C#N)c2nnc(N3CCOCC3)n2-c2ccccc2)cc1OC | inconclusive: 10 µM [inhibitor, partial curve, poor fit] | 

Further entries follow:

Row | Compound | Potency | activity change, negative = inhibition
49 | CCOC(=O)CC1(NC(=O)c2cc(COc3ccc(F)c(F)c3)on2)CCCCC1 | inconclusive: 28.2 µM [activator, single point] | 
50 | COC(=O)Cc1cc(=O)[nH]c(/N=C(\N)Nc2ccc(C(C)C)cc2)n1 | inconclusive: 11.2 µM [activator, partial curve] | 
51 | Cc1ccc(-c2cc(NC(=O)CCl)n(-c3ccccc3)n2)cc1 | active: 6.31 µM | 
52 | Cc1ccc(CNC(=O)CS(=O)Cc2nc(-c3ccccc3C)oc2C)cc1 (configuration not stated) | active: 11.2 µM | 
53 | Cc1cc(NC(=O)CSc2nnnn2-c2ccc(F)cc2)no1 | inactive | 
54 | Cc1nnsc1NC(=O)OCc1ccc(Cl)cc1Cl | inconclusive: 12.6 µM [activator, single point] | 
55 | Cc1cc(NC(=O)Cn2c(=O)oc3ccc(Cl)cc32)no1 | inconclusive: 10 µM [inhibitor, partial curve] | 
56 | NS(=O)(=O)C#Cc1ccccc1 | active: 5.62 µM | 
57 | Nc1nc(-c2cc3ccccc3o2)cs1 | inactive | 
58 | CC(=O)c1c(C)[nH]c(C(=O)N2CCN(C(=O)c3ccco3)CC2)c1C | inactive | 
59 | CCOC(=O)c1[nH]c2ccc(OC)cc2c1NC(=O)c1ccccc1C(=O)O | inconclusive: 11.2 µM [activator, partial curve] | 
60 | O=C(NC(=S)N1CCN(C/C=C/c2ccccc2)CC1)c1ccco1 | active: 1.12 µM | 
61 | O=C1C2C3C=CC(C4CC34)C2C(=O)N1/N=C/c1ccc(-c2ccccc2[N+](=O)[O-])o1 (configuration not stated) | inconclusive: 4.47 µM [activator, partial curve] | 
62 | O=C(NC1CCCC1)C1CCN(C(=O)Nc2cccc(Cl)c2)CC1 | inactive | 
63 | CCOC(=O)c1c(C)[nH]c(/C(C)=N/O)c1C |  | inactive: -4.38% [at 10 µM]
64 | CCc1nnc(NC(=O)c2ncc(Cl)c(Cl)c2Cl)s1 | active: 3.16 µM | 
65 | COc1cc(Br)cc(CNc2ccc(F)c([N+](=O)[O-])c2)c1O | inconclusive: 35.5 µM [inhibitor, single point] | 
66 | Cc1nn(-c2ccccc2)c(C)c1C(=O)OCC(=O)NC(=O)NC1CCCCC1 | inconclusive: 15.8 µM [activator, single point] | 
67 | O=C(CN1CCN(Cc2ccccc2Cl)C1=O)NC1CCCCCC1 | inconclusive: 11.2 µM [activator, single point] | 
68 | C(=N\N1CCOCC1)/c1nc(-c2ccccc2)n2ccccc12 | inconclusive: 20 µM [inhibitor, partial curve] | 
69 | O=C(NC(=S)Nc1ccccc1Br)C1CCC1 | active: 3.16 µM | 
70 | N=c1c2c(n(Cc3cccc(Cl)c3)c3c1CCC3)CCCC2 | inconclusive: 2.24 µM [activator, partial curve] | 
71 | CCCc1nn(C)c2c(=O)[nH]c(-c3ccccc3OCC)nc12 | inactive | 
72 | c1ccc2c(c1)CC1(CCCC1)n1nnnc1-2 | active: 0.708 µM | 
